Literature values, collected in patent US5338830A, “Biologically active peptide derived from chicken (chicken CNP)” (Suntory Limited, priority 1990, dated 1994).
Part of at least one peptide drawing is inferred or uncertain, most often the ends.

Tested on: chicken rectum
Conditions: prior art, Sudoh et al. 1990; cited from earlier work

Structure (SMILES): CC[C@H](C)[C@@H]1NC(=O)[C@H](CCCNC(=N)N)NC(=O)[C@H](CC(=O)O)NC(=O)[C@H](CC(C)C)NC(=O)[C@H](CCCCN)NC(=O)[C@H](CC(C)C)NC(=O)CNC(=O)[C@H](Cc2ccccc2)NC(=O)[C@@H](NC(=O)CNC(=O)[C@H](CCCCN)NC(=O)[C@H](CO)NC(=O)[C@H](CC(C)C)NC(=O)CN)CSSC[C@@H](C(=O)O)NC(=O)CNC(=O)[C@H](CC(C)C)NC(=O)CNC(=O)[C@H](CO)NC(=O)[C@H](CCSC)NC(=O)[C@H](CO)NC(=O)CNC1=O [pCNP]
- specific activity in relaxation of intestinum rectum specimens of chickens (in words): specific activity higher than ANP or BNP
